For this test, the target named is human CCR8 (chemokine (C-C motif) receptor 8) (human) (UniProt P51685). Kind of test: flow cytometry on CCR8-CHO-K1 cells, PE anti-human IgG Fc secondary.

Chains of the proteins cited; added tags and fusions are not shown.
UniProt P51685: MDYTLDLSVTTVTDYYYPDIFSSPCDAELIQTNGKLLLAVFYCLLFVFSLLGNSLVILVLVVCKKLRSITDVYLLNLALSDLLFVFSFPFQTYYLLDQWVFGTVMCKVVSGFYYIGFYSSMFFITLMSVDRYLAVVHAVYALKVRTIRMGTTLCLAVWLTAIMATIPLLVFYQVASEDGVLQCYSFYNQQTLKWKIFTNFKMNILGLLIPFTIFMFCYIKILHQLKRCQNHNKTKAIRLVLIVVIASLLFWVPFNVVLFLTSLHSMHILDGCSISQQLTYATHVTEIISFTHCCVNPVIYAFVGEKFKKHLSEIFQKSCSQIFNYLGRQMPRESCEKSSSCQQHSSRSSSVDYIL

No constants are given. Whether binding was seen depends on the method and setting. Some entries that bind do so weakly or less than the wild type.

B1: Ms-1 (antibody, V domains shown)
VH: QVQLQQSGAELVRPGASVTLSCKASGYTFTAYEMHWVRQTPVNGLEWIGAIDPKTGVTAYNQKFKDKAIMTADKYSSTAYMDLRSLTSEDSAVYYCTSRAGGRGRFAYWGQGTLVTVSA
VL: DVVMTQTPLSLPVSLGDQASISCRSSQSLVHSSANTYLHWYLQKPGQSPKVLIYKVSNRFSGVPDRFSGSGSGTDFTLKISRVEAEDLGLYFCSQSTHVPFTFGGGTKLEIK
notes: Mouse hybridoma antibody; also called mouse-derived anti-CCR8 antibody Ms-1
As to B1, the binding result is “binds”.

B2: Ms-8 (antibody, V domains shown)
VH: EVQLVETGGGLVQPKGSLKLSCAASGFTFNTYAMNWVRQTPEKGLEWVARIRTKSNNYATSYADSVKDRFTISRYDSQNMLYLQMNNLKTEDTAMYYCVRGGYGIRGDYAMDYWGQGTSVTVSS
VL: DIVMTQAAPSVPVTPGESVSISCRSTKSLLHSNGNTYLYWFLQRPGQSPQLLIYRMSNLASGVPDRFSGSGSGTTFTLRISRVEAEDVGVYYCMQHLEYPFTFGSGTKLEIK
notes: Mouse hybridoma antibody; also called mouse-derived anti-CCR8 antibody Ms-8
For B2, the binding result was “binds”.

B3: Ms-15 (antibody, V domains shown)
VH: EVQLVETGGGLVQPKGSLKLSCAASGFTFNTNAMNWVRQAPGKGLEWVGRIRTKSNNYATYYADSVRDRFTISRYDSQGMLYLQMNNLKTEDTAMYYCVRGGYGIRGDYTMDYWGQGTSVTVSS
VL: DIVMTQAAPSVPVTPGESVSISCRSSKSLLHSNGNTYLYWFLQRPGQSPQLLIYRMSNLASGVPDRFSGSGSGTAFTLRISRVEAEDVGVYYCMQHLEYPFTFGSGTKLEIK
notes: Mouse hybridoma antibody; also called mouse-derived anti-CCR8 antibody Ms-15
For the molecule B3, the binding entry is recorded as “binds”.

(Values after patent publication US20250243287A1 (SHENGHE CHINA BIOPHARMACEUTICAL, published 2025).)
